Drawing on paper PMC9421128, this text covers binding for four substances.

The chains behind the UniProt entries cited, without tags or fusion partners. Residues count along the entry.
UniProt Q997F2: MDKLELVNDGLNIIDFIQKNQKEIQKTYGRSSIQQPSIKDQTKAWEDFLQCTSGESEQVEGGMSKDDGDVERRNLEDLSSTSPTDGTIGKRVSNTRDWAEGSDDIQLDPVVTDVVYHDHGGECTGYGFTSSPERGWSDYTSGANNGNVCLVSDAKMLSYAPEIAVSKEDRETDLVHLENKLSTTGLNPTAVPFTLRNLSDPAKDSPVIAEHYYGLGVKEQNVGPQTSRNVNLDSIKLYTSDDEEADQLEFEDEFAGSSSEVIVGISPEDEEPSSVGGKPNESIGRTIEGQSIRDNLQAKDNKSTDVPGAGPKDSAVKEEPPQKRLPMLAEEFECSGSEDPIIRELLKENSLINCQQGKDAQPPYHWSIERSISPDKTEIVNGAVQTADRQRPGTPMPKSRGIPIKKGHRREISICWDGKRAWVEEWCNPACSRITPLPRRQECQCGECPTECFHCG
UniProt Q14258: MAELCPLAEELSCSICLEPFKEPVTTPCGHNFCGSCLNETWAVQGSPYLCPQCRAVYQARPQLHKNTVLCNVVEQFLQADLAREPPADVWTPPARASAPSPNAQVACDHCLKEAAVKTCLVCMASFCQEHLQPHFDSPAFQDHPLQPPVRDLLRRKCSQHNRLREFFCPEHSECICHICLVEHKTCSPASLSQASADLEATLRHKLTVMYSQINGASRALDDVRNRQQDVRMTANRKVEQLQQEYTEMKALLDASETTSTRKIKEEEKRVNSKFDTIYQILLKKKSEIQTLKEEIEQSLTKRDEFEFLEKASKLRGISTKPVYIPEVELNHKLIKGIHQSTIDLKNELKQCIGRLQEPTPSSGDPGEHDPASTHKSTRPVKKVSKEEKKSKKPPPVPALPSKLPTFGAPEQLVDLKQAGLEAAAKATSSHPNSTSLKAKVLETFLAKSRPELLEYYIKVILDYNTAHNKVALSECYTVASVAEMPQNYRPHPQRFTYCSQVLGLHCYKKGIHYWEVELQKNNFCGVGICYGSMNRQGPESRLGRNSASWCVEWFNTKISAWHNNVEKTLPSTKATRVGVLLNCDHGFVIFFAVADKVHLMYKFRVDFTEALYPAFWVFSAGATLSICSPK
UniProt O95786, residues 1-283: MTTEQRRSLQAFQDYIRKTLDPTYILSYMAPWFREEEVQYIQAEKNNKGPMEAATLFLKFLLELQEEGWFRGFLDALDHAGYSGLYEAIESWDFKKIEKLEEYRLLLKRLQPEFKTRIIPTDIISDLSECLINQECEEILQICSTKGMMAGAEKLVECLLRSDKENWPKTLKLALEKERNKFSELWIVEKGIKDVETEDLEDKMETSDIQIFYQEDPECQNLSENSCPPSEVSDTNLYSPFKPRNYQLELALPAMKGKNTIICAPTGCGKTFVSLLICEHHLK

Results are given in words; binding and its absence hold for the method and conditions named. Binding seen in cells or lysates may run through a third protein. Some binding calls cover weakened binding; strength is not graded here.

Test in all cases: co-IP
The target of experiment [1] is Nipah virus (NiV) V protein (Nipah virus) (UniProt Q997F2).
Experiment [2] concerns the target V5-tagged TRIM25 (V5-TRIM25), expressed in HEK293T (human) (UniProt Q14258).
Experiment [3] deals with V5-tagged RIG-I CARD (V5-RIG-I CARD), expressed in HEK293T (human) (UniProt O95786).

As to “V5-tagged RIG-I CARD (V5-RIG-I CARD), expressed in HEK293T (from UniProt O95786 1-283) (domain or fragment)”, in experiment [1], the binding entry was “binds”.

“FLAG-tagged RIG-I CARD (FLAG-RIG-I CARD), expressed in HEK293T (from UniProt O95786 1-283) (domain or fragment)”: in experiment [2], the binding result is on record as “binds”.

For the substance “FLAG-TRIM25, expressed in HEK293T (from UniProt Q14258 1-630) (enzyme)”, the binding result in experiment [3] is “binds”.

With “V5-tagged TRIM25 (V5-TRIM25), expressed in HEK293T (from UniProt Q14258 1-630) (enzyme)”, in experiment [1], the binding result is given as “binds”.
